Measurements taken from PubChem BioAssay AID1487 (National Center for Advancing Translational Sciences (NCATS), 2009).
Screen size: about 200,000 compounds; about 25 (0.01%) were called active. The inconclusive results got no clear call from the source; some entries with a clear call stand among them for comparison. The call rests on the fitted dose curve; in most records, active means well fitted inhibition curve with a large enough effect in the signal ratio, with a control signal flat (not every such curve was filed as active); inconclusive means small, poorly fitted or top-dose-only effect, or effect the other way, or a change in a side signal; inactive means flat fitted curve, though single readings scatter; the % refers to the signal ratio. Potencies beside an inconclusive call are fits to weak or partial responses and may not hold up.

test: qHTS Assay for Modulators of Lamin A Splicing; conditions: HeLa LMNA splicing GFP/RFP minigene ratio, 48 h; ratio change, negative = inhibition: at 46.1 µM (top of the series) unless noted
In short: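 S3 HeLa cells stably expressing lamin A-EGFP splicing minigene plus DsRed2, 600 cells/well, 48 h compound exposure at 37C. Laser-scanning cytometry; analysed as GFP (500-530 nm)/RFP (575-640 nm) total intensity ratio; 0.5% DMSO vehicle.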
On the % scale 0 is the no-effect control and ±100 the full control effect; potency means the concentration at half of the fitted maximal effect.

SMILES | ratio change, negative = inhibition | Potency
CCN(CC)S(=O)(=O)c1ccc(-c2nnc(SCC(C)=O)o2)cc1 | inactive: -2.4% | 
O=C(CN1CCN(c2ccccc2)CC1)Nc1ccc(OCc2ccccc2)cc1 |  | inconclusive: 35.5 µM [fluorescent, single point]
Cc1ccc(C(=O)c2cc([N+](=O)[O-])ccc2N2CCN(C)CC2)cc1 | inactive: -2.65% | 
COC(=O)CSc1cc(C(=O)c2nccn2C)c2ccccc2n1 | inconclusive: 4.25% | 
O=C(CCc1ccc(S(=O)(=O)NCCc2ccccc2)cc1)NCc1ccc2c(c1)OCO2 | inactive: 0.129% | 
Cc1ccc(C(=O)CC2(O)C(=O)N(Cc3ccccc3)c3ccc(Br)cc32)cc1 (configuration not stated) |  | inconclusive: 35.5 µM [rising, single point]
Nc1cccc(Nc2nc(OC(C(F)(F)F)C(F)(F)F)nc(OC(C(F)(F)F)C(F)(F)F)n2)c1 |  | inconclusive: 35.5 µM [cytotoxic, single point]
O=C(O)c1ccccc1N/N=C/c1c(Sc2nnnn2-c2ccccc2)nc2ccccn2c1=O | inconclusive: 13.2% [at 46 µM] | 
CCCCC1=CC2=CC(=O)C(C)(OC(=O)CC)C(=O)C2=CN1C1CCCCC1 (configuration not stated) | inactive: -8.82% [at 9.22 µM] | 
Cc1ccc(S(=O)(=O)NC(=O)NCc2ccccn2)cc1 | inactive: -4.79% | 
CCCCNS(=O)(=O)c1ccc2nc(-c3cccnc3)cc(C(=O)NCCCOCC)c2c1 | inactive | 
Cc1ccc(NC(=O)COCc2cc(-c3cccs3)on2)cc1Cl | inactive: 2.13% [at 46 µM] | 
CCN1/C(=C/C(C)=O)Sc2ccc(OC)cc21 | inconclusive: 18.2% | 
CC(=O)Nc1ccccc1C(=O)C(=O)Nc1ccccc1 | inconclusive: -12.5% | 
CCCC(=O)N1CCCC(c2nc(-c3cccc(OC)c3)no2)C1 (configuration not stated) | inconclusive: 5.67% [at 46 µM] | 
Cc1ccccc1S(=O)(=O)Cc1ccc(C(=O)N2CC(C)CC(C)C2)o1 (configuration not stated) | inactive: -19.2% | 
CCN(CC)S(=O)(=O)c1ccc(-c2nnc(SCC(=O)N3CCc4ccccc43)o2)cc1 | inactive: -7.18% | 
COc1cc(Br)cc(-c2nc3c(c(=O)[nH]c(=O)n3Cc3ccccc3)n2C)c1O | inconclusive: 31.7% | 
CCS(=O)(=O)Nc1ccc(-c2nnc(SCC(=O)c3cccc(OC)c3)o2)cc1 | inactive: 2.9% | 
COC(=O)c1cc(C(=O)OC)n(Cc2ccc(C)cc2)c1C | inactive: 11.6% [at 46 µM] | 
CCCC(c1nnnn1CC(=O)OCC)N(Cc1cc2ccc(C)cc2[nH]c1=O)C1CCCC1 (configuration not stated) | inactive: 8.36% | 

SMILES | ratio change, negative = inhibition | Potency
CCOC(=O)c1cc(-c2cc(OC)c(OC)c(OC)c2)nc2c1c(=O)[nH]c(=O)n2Cc1ccccc1 |  | inconclusive: 3.16 µM [inhibitor, full curve]
Cc1c(O)cccc1C(=O)N[C@@H](CSc1ccccc1)[C@H](O)CN1C[C@H]2CCCC[C@H]2C[C@H]1C(=O)NC(C)(C)C | inconclusive: 225% | 
CCOC(=O)c1c(/N=C/N(C)C)sc(/C=N/Nc2ccccc2)c1-c1ccccc1 | inconclusive: 5.41% | 
Cc1ccc(OCc2nc(C#N)c(N3CCCCC3)o2)cc1 | inconclusive: 5.76% [at 46 µM] | 
O=c1cc(-c2ccccc2[N+](=O)[O-])oc2ccccc12 |  | inconclusive: 35.5 µM [rising, single point]
Cc1nc(S(=O)(=O)N2CCN(c3ccccc3F)CC2)cn1C | inactive: 12.9% [at 46 µM] | 
COc1cccc(C2C=C(c3ccc(Br)s3)Nc3ncnn32)c1OC (configuration not stated) | inconclusive: -1.73% | 
N/C(=N\OC(=O)/C=C/c1ccccc1)c1ccc(Br)cc1 | inconclusive: 11.2% [at 46 µM] | 
Cc1cccc(CNC(=O)CN2C(=O)CCn3nc(-c4cn(C)c5ccccc45)cc32)c1 | inactive: -6.88% [at 46 µM] | 
CNc1nc(-c2ccccc2Cl)nc2ccccc12 | inactive: -4.39% | 
CCC(=O)N(CC)C1=C(O)c2ccccc2C(=O)C1=O | inactive: 6.64% | 
Cc1cccc(N(C(=O)Cn2nnc(-c3ccc(F)cc3)n2)C(C(=O)NC(C)(C)C)c2ccncc2)c1 (configuration not stated) | inconclusive: 5.05% [at 46 µM] | 
O=C(Nn1c(C2CCCCC2)nc2ccccc2c1=O)c1cc(Cl)ccc1[N+](=O)[O-] | inconclusive: -18% | 
Cn1nc(C(=O)NC2CCCCC2)c2ccccc2c1=O | inactive: 4.01% [at 0.0737 µM] | 
Cc1ccc(/C=c2\sc3n(c2=O)CN(c2ccc(Br)cc2)CN=3)o1 | inactive: 3.74% | 
CC(C)n1cc(C(=O)c2ccccc2O)cc(C#N)c1=O | inconclusive: 17.6% [at 9.22 µM] | 
COc1ccc(S(=O)(=O)N(C)C)cc1NC(=O)CSc1nc(N)cc(N)n1 | inconclusive: 10.3% [at 46 µM] | 
O=C(c1ccccc1Nc1ccc(SC(F)F)cc1)N1CCCCCC1 |  | inconclusive: 17.8 µM [cytotoxic, single point]
O=C(CSc1nnc(-c2ccccc2O)o1)Oc1ccc(OCc2ccccc2)cc1 |  | inconclusive: 12.6 µM [fluorescent, partial curve]
Cc1cccc(Nc2nc(-c3ccncc3)cs2)c1 | inconclusive: 2.62% [at 46 µM] | 
CN(C(=S)NC(=O)CCCOc1ccc(Cl)cc1Cl)c1ccccc1 | inactive: 35.2% | 

SMILES | ratio change, negative = inhibition | Potency
Cc1ccc(C)c(S(=O)(=O)N2CCCOC2CNC(=O)C(=O)NCCC2=CCCCC2)c1 (configuration not stated) |  | inconclusive: 35.5 µM [fluorescent, single point]
Cc1ccc(SCCCCN2CCNCC2)cc1 | inconclusive: 8% | 
Cc1ccc(C)c(-c2cc(C(=O)Nc3cccc(C(=O)O)c3)c3ccccc3n2)c1 | inactive: 24.6% [at 46 µM] | 
Cc1ccc(NC(=O)CSc2nc3[nH]ncc3c(=O)[nH]2)c(C)c1 | inactive: 7.14% [at 46 µM] | 
CCOC(=O)c1[nH]c(C)c(C(=O)Nc2ccc(C)c(F)c2)c1C |  | inconclusive: 11.2 µM [falling, partial curve]
CSc1nc(Cl)c(Cc2ccc(OC(C)C)cc2)c(N2CCOCC2)n1 |  | inconclusive: 35.5 µM [inhibitor, single point]
Cc1nc(C(=O)O)nn1-c1cc(Cl)ccc1Cl | inactive: -4.8% [at 46 µM] | 
O=C(c1ccccn1)N1CCN(C(=O)c2ccccn2)CC1 | inconclusive: -6.32% | 
Cc1cc(C)c2c(NC(=S)NC(=O)c3ccccc3)nn(C)c2n1 | inconclusive: 40.2% [at 46 µM] | 
CC(=O)Nc1nc2c(s1)C(=O)NCCC2 | inconclusive: -3.95% [at 46 µM] | 
CCOC(=O)Cc1csc(NC(=O)NC2(C(F)(F)F)Oc3ccc(Cl)cc3O2)n1 (configuration not stated) | inconclusive: -35% | 
COc1ccc(C(=O)C(C)Oc2cccc(NC(=O)c3cccc([N+](=O)[O-])c3)c2)cc1 (configuration not stated) |  | inconclusive: 28.2 µM [fluorescent, single point]
CN(C)S(=O)(=O)c1cccc(NC(=O)COC(=O)/C=C/c2ccco2)c1 | inactive: 1.07% | 
O=C(NN1C(=O)c2ccccc2C1=O)c1ccccc1[N+](=O)[O-] | inactive: 3.73% [at 46 µM] | 
COCCCNc1nc(NCc2ccc(C)cc2)c2cnn(C)c2n1 | inactive: 21% [at 46 µM] | 
O=c1oc2ccccc2cc1-c1nc(-c2cccs2)no1 | inconclusive: -0.458% [at 46 µM] | 
COc1ccc(C(=O)Cn2c(C(=O)/C=C/c3ccccc3)nc3ccccc32)cc1 | inconclusive: -31.9% | 
CCCn1c(SCC(=O)Nc2ccccc2CC)nnc1C(C)C | inactive: -10.2% | 
Cc1ccc(-c2nc(N/N=C/c3cccnc3)c3ccccc3n2)cc1 | inconclusive: -40.5% | 
Nc1ccc2nc(Cc3ccccc3)[nH]c2c1 | inconclusive: 3.59% [at 46 µM] | 
CCC(=O)CCC(=O)c1ccc2ccccc2c1 | inactive: 7.52% | 

SMILES | ratio change, negative = inhibition | Potency
CC(C)(C)NC(=O)C(c1ccncc1)N(C(=O)Cn1nnc(-c2ccc(F)cc2)n1)c1ccc(F)cc1 (configuration not stated) | inactive: 9.55% [at 46 µM] | 
COc1cccc2cc(C(=O)OCC(=O)NCc3ccc4c(c3)OCO4)c(=O)oc12 | inconclusive: 10.1% [at 46 µM] | 
O=C(Cn1c(=O)n2nc(-c3cccc(F)c3)nc2c2ccccc21)N1CCN(c2ccccc2F)CC1 | inconclusive: -6.82% [at 46 µM] | 
CNc1ncncc1-c1ccccc1CN(C)C | inactive: 9.58% | 
CC(Oc1ccccc1)C(=O)NNC(=O)c1ccccn1 (configuration not stated) | inconclusive: -35.7% | 
NC(=O)C1CCN(C(=S)NCCc2ccccc2)CC1 | inconclusive: 17.7% [at 46 µM] | 
CC(Sc1nc2c([nH]c3ccccc32)c(=O)n1-c1ccccc1)c1ccccc1 (configuration not stated) |  | inconclusive: 35.5 µM [cytotoxic, single point]
CCOCc1nnc(NC(=O)c2ccc(NC(C)=O)cc2)s1 | inconclusive: 18.8% [at 46 µM] | 
CCC1CN(C(=O)N2CCC(C(=O)N3CCN(c4cc(C)ccc4C)CC3)CC2)c2ccccc2O1 (configuration not stated) | inconclusive: 8.7% [at 46 µM] | 
COc1ccc(-c2cc3ccc(O)c(CN4CCCC4)c3oc2=O)cc1OC | inconclusive: 9.4% [at 46 µM] | 
CCOC(=O)C1=C(Cc2ccc(F)cc2)C(=O)c2ccccc2C1=O |  | inconclusive: 35.5 µM [inhibitor, single point]
CCOC(=O)c1c(NC(=O)CC2SC(N)=NC2=O)sc(C)c1C (configuration not stated) | inconclusive: -24.2% [at 46 µM] | 
COc1ccc(CNC(=O)c2cn(-c3cccc(OC)c3)c(=O)c3ccccc23)cc1 | inactive: -3.15% [at 46 µM] | 
CCOC(=O)C1=C(C)OC(N)=C(C(=O)OCC)C1c1ccncc1 (configuration not stated) | inconclusive: 6.56% | 
CSc1nc(N)nc(SCC(=O)Nc2ccc(Cl)cc2)c1C#N | inactive: -15.9% | 
Cc1ccc2[nH]c(=O)c(CN(CCc3ccccc3)Cc3nnnn3CC3CCCO3)cc2c1 (configuration not stated) | inactive: -1.88% | 
Nc1[nH]n(-c2ccccc2)c(=O)c1N=Nc1ccc2c(c1)OCCO2 | inconclusive: -39.8% [at 46 µM] | 
O=C(CCCC(=O)N1CCCc2ccccc21)N1CCCc2ccccc21 | inactive: -9.51% | 
